The values below come from doi:10.1101/2025.05.13.653593.

The chains behind the UniProt entries cited, without tags or fusion partners. Where a name states a change or a piece, a line headed by the entry shows the natural chain unless it says otherwise.
UniProt P9WNQ9, whole entry, stated change not applied: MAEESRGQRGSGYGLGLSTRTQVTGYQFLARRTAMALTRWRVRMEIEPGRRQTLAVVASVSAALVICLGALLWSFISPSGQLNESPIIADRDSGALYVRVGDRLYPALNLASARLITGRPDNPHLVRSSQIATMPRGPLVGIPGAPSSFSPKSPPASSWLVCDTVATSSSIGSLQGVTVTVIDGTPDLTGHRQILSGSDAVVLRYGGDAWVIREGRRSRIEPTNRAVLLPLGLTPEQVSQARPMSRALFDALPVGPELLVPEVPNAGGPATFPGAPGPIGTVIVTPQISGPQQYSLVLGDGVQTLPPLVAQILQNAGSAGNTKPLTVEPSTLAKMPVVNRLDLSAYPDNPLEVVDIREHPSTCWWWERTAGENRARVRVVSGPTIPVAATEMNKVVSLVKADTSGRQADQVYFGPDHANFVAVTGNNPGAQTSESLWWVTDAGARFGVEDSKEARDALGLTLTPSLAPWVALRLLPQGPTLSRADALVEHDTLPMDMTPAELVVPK

In the experiment the target is GFP-EccB5 (Mycobacterium tuberculosis) (UniProt P9WNQ9). In words: affinity purification with mass spectrometry.

No constants are given. Whether binding was seen depends on the method and setting. Binding seen in cells or lysates may run through a third protein. Here binding means that the protein was enriched with, or labelled near, the bait; the list need not be complete.

With “GSDMD found in the anti-GFP immunoprecipitate of HEK293T cells (from UniProt P57764 1-484)”, the binding entry was “binds”.
